{
  "source": "paper PMC8991007",
  "about": "“Benzylic Dehydroxylation of Echinocandin Antifungal Drugs Restores Efficacy against Resistance Conferred by Mutated Glucan Synthase” (Journal of the American Chemical Society, 2022)",
  "assay_type_in_all_cases": "cell-based",
  "key": {"[1]": {"system": "Hs 578T", "experiment": "Phenotypic viability assay of GFP reporter cell line", "conditions": "Homo sapiens; Hs 578T expressing GFP, 24 h, mean ± SD", "description": "(§1) In this analysis, we used HCT-116, a human colorectal carcinoma cell line; UACC-62, a human melanoma cell line; Hs 578T, a human mammary gland carcinoma cell line, and SF-295, a human glioblastoma cell line. […] The highest concentration of the echinocandins used for the cell viability tests was determined based on the reported maximal plasma concentrations (Cmax) of ANF and RZF measured in humans. A Cmax of approximately 7 μM was measured during a pharmacokinetic study of ANF in patients with candidemia or invasive candidiasis who were treated with a 200 mg loading dose on day 1, followed by a daily 100 mg maintenance dose.[64]\n(§2) Human cell lines HCT-116, UACC-62, Hs 578T, and SF-295 were obtained from the Life Sciences Core Facilities of the Nancy & Stephen Grand Israel National Center for Personalized Medicine. […]\n(§3) Assay-ready plates were designed using in-house software (CHEMPION, INCPM software development team) and prepared in 384-well Greiner plates (cat. no. 781091) using an Echo 555 Acoustic Liquid Handler (Labcyte). […] Prior to the experiment, cells were trypsinized and counted using a Countess cytometer. […] Images were then analyzed using MetaExpress with a custom protocol (Custom Module Editor), and data were annotated and normalized using Genedata Screener software. […]"}, "[2]": {"system": "SF-295", "experiment": "cells", "conditions": "Homo sapiens, SF-295, 24 h, read-out: IC50 (cell viability)", "description": "as §1, §2, §3"}, "[3]": {"system": "HCT-116, UACC-62, Hs 578T, SF-295", "experiment": "cells", "conditions": "Homo sapiens, 24 h, read-out: IC50 values, range over the four cell lines", "description": "as §1, §2, §3"}},
  "data": [
    {"compound": "CN[C@@H]1C[C@H]2O[C@@](C)([C@@H]1OC)n1c3ccccc3c3c4c(c5c6ccccc6n2c5c31)C(=O)NC4", "note": "[Staurosporine]", "values": [
      {"measurement": "IC50", "setting": "[1]", "result": "800 ± 580", "unit": "nM"},
      {"measurement": "IC50", "setting": "[2]", "result": "340 ± 250", "unit": "nM"},
      {"measurement": "IC50", "setting": "[3]", "result": "340 to 800", "unit": "nM"}
    ]}
  ]
}
